Key:
[1] = system: bone marrow-derived macrophages (BMDMs); settings: FEXO treatment of HRH1-/- macrophages vs vehicle-treated HRH1-/- macrophages
[2] = system: CT26 tumors; experiment: CT26 tumor model with or without OVA-induced allergic airway disease; type: in vivo, mouse; settings: allergic mice
From the text: (§1) Tumor inductions and treatment experiments.
(§2) Isolation of tumor-infiltrating cells.
(§3) Flow cytometry staining and analysis.

[3] = system: EMT6 tumors; experiment: EMT6 tumor model with or without OVA-induced allergic airway disease; type: in vivo, mouse; settings: allergic mice
From the text: as §1, §2, §3

[4] = system: EO771 tumors
From the text: as §1, §2, §3

[5] = system: B16-GM tumors; experiment: B16-GM melanoma model; settings: FEXO-treated vs vehicle-treated WT mice; 30 mg/kg oral gavage once per day

CC(C)(C(=O)O)c1ccc(C(O)CCCN2CCC(C(O)(c3ccccc3)c3ccccc3)CC2)cc1 (stereo not shown) [FEXO, fexofenadine]
MHCII:CD206 ratio [1]: did not increase the MHCII:CD206 ratio | allergy-induced increased VISTA on TAMs, decreased MHCII:CD206 ratio, reduced IFN-g+ CD8+ T cells [2]: partially reversed | allergy-induced increased VISTA on TAMs, decreased MHCII:CD206 ratio, reduced IFN-g+ CD8+ T cells [3]: partially reversed | angiogenesis (CD31+ blood vessel density) ([4]; FEXO-treated vs vehicle-treated EO771 tumors): did not show a significant impact on angiogenesis | MHCII:CD206 ratio in the TAMs ([4]; FEXO-treated vs vehicle-treated WT mice, 30 mg/kg oral gavage once per day): Enhanced | mice remaining tumor free ([4]; PD-L1-/- mice treated with FEXO): 50% | MHCII:CD206 ratio in the TAMs [5]: Enhanced
